Experimental data from PMC12123085.
Results are given in words; binding and its absence hold for the method and conditions named. In cells and extracts the contact can be indirect. Some binding calls cover weakened binding; strength is not graded here.

Protein sequences, listed by entry. Tags and fused reporters are not part of them.
UniProt Q9Z2L0: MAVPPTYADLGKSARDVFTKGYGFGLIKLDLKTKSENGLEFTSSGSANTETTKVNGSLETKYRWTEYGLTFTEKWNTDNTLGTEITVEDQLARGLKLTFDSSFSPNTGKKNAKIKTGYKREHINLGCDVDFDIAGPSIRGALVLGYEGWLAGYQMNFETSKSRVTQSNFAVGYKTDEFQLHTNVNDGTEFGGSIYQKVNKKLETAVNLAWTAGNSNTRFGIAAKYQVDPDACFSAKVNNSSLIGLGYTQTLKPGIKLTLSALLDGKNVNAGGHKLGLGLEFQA

Legend:
[1] = target: Mitochondrial calcium uptake 3 (MICU3) (rat (endogenous in rat neutrophils)); experiment: proximity ligation; fixed, permeabilised cell or tissue slices; primary antibodies against VDAC1 and MICU3, plus/minus PLA probes, fluorescence microscopy
[2] = target: Mitochondrial calcium uptake 3 (MICU3) (rat (endogenous in rat neutrophils)); experiment: co-IP; IP with MICU3 antibody (3 ug, 1 mg protein, Protein A/G magnetic beads, rabbit IgG as negative control), Western blot; neutrophils from the Sham and MIRI groups

What does the source list for VDAC1 (from UniProt Q9Z2L0 1-283)?
binding [1]: binds; binding [2]: binds
